In PMC7250321:
These are yes or no findings as the source states them, for the method shown. In cells and extracts the contact can be indirect. A result given as binding can be weak or reduced; the word gives no strength. Tags and fused reporters may be left off the sequences shown.

Target: T1, Flag-tagged ACOX1 protein (acyl-CoA oxidase 1) (human) (UniProt Q15067)
T1 sequence: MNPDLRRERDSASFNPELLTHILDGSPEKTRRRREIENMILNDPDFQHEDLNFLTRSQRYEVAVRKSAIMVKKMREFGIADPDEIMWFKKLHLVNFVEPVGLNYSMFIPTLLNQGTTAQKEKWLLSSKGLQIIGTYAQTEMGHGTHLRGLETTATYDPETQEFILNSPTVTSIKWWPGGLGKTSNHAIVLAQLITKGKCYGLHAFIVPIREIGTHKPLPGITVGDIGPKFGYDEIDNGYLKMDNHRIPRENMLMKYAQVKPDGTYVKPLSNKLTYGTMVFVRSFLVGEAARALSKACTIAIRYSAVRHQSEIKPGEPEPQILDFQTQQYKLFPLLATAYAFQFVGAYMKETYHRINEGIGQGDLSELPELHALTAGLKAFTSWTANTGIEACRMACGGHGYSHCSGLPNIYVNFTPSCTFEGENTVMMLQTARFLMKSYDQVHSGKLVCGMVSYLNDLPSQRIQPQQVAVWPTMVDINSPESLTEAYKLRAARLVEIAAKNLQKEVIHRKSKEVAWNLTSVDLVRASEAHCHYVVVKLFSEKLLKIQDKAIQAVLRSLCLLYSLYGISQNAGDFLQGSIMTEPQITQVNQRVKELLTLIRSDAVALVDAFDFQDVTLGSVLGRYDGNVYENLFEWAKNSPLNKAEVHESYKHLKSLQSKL
Test: co-IP; HEK293T cells co-transfected; IP lysis buffer (0.025 M Tris-HCl, 0.15 M NaCl, 1 mM EDTA, 1% NP-40, 5% glycerol, pH 7.4); IP with anti-Flag or anti-HA or control IgG overnight at 4°C, protein G agarose; Western blot

**Q.** “HA-tagged EV71 3D protein (enterovirus 71) (enzyme)” was tested. Which binding did it give?
**A.** binds
